{"source": "PubChem BioAssay AID493246 (Drosophila RNAi Screening Center, 2011)", "purpose": "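Genes fly cells need to grow and stay alive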 (primary screen)", "cell system": "Drosophila Kc and S2R+ cells", "reagent": "long dsRNA against Drosophila genes", "read-out": "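Raw, unnormalised count of remaining cells in each well; per-plate z-scores of cell number underlie the calls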", "direction": "Kc cell number and S2R+ cell number: higher = more cells remaining", "active means": "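Active when the per-plate z-score of cell number is 3 or more in the direction of fewer cells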", "note": "The screen tested about 21,000 reagents; this is a random part of those with a known target gene and a result. Over the whole deposit, 429 (2%) got an active call. 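Values are raw and not normalised between plates; calls rest on per-plate z-scores that were not deposited.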 Entries without a mark were called inactive. A plus sign joins genes that one reagent is predicted to hit. Not stated in the record: the amount of reagent, the time to read-out."}
{"gene":"CG34160","DRSC id":"DRSC01131","Kc cell number, rep 1":1.47e6,"Kc cell number, rep 2":1.54e6,"S2R+ cell number, rep 1":9.89e5,"S2R+ cell number, rep 2":1.10e6}
{"gene":"RpS30 (Ribosomal protein S30)","DRSC id":"DRSC15119","Kc cell number, rep 1":7.96e5,"Kc cell number, rep 2":8.04e5,"S2R+ cell number, rep 1":6.31e5,"S2R+ cell number, rep 2":7.17e5}
{"gene":"CG14292","DRSC id":"DRSC14772","Kc cell number, rep 1":1.35e6,"Kc cell number, rep 2":1.31e6,"S2R+ cell number, rep 1":9.46e5,"S2R+ cell number, rep 2":1.06e6}
{"gene":"Spt-I (Serine palmitoyltransferase subunit I)","DRSC id":"DRSC06860","Kc cell number, rep 1":1.68e6,"Kc cell number, rep 2":1.69e6,"S2R+ cell number, rep 1":1.23e6,"S2R+ cell number, rep 2":1.24e6}
{"gene":"Cog7 (Component of oligomeric golgi complex 7)","DRSC id":"DRSC16331","Kc cell number, rep 1":1.67e6,"Kc cell number, rep 2":1.72e6,"S2R+ cell number, rep 1":1.03e6,"S2R+ cell number, rep 2":1.16e6}
{"gene":"CG14683","DRSC id":"DRSC17035","Kc cell number, rep 1":1.79e6,"Kc cell number, rep 2":1.91e6,"S2R+ cell number, rep 1":1.54e6,"S2R+ cell number, rep 2":1.62e6}
{"gene":"Rx (Retinal Homeobox)","DRSC id":"DRSC03837","Kc cell number, rep 1":5.18e5,"S2R+ cell number, rep 1":8.24e5}
{"gene":"Rx (Retinal Homeobox)","DRSC id":"DRSC04652","Kc cell number, rep 1":1.69e6,"Kc cell number, rep 2":1.87e6,"S2R+ cell number, rep 1":1.41e6,"S2R+ cell number, rep 2":3.93e5}
{"gene":"CG4293","DRSC id":"DRSC18557","Kc cell number, rep 1":5.14e5,"S2R+ cell number, rep 1":8.25e5}
{"gene":"CG11562","DRSC id":"DRSC00316","Kc cell number, rep 1":1.61e6,"Kc cell number, rep 2":1.58e6,"S2R+ cell number, rep 1":1.19e6,"S2R+ cell number, rep 2":1.35e6}
{"gene":"CG10943","DRSC id":"DRSC09805","Kc cell number, rep 1":1.34e6,"Kc cell number, rep 2":1.58e6,"S2R+ cell number, rep 1":1.17e6,"S2R+ cell number, rep 2":1.28e6}
{"gene":"Ucp4A (Uncoupling protein 4A)","DRSC id":"DRSC19996","Kc cell number, rep 1":1.55e6,"Kc cell number, rep 2":1.54e6,"S2R+ cell number, rep 1":1.03e6,"S2R+ cell number, rep 2":1.17e6}
{"gene":"CG11168","DRSC id":"DRSC14292","Kc cell number, rep 1":1.55e6,"Kc cell number, rep 2":1.68e6,"S2R+ cell number, rep 1":1.24e6,"S2R+ cell number, rep 2":1.37e6}
{"gene":"kibra","DRSC id":"DRSC14533","Kc cell number, rep 1":1.34e6,"Kc cell number, rep 2":1.39e6,"S2R+ cell number, rep 1":1.27e6,"S2R+ cell number, rep 2":1.33e6}
{"gene":"kibra","DRSC id":"DRSC16257","Kc cell number, rep 1":"1.98e5 (active)","Kc cell number, rep 2":2.66e5,"S2R+ cell number, rep 1":5.13e5,"S2R+ cell number, rep 2":5.98e5}
{"gene":"Cul5 (Cullin 5)","DRSC id":"DRSC14723","Kc cell number, rep 1":1.49e6,"Kc cell number, rep 2":1.55e6,"S2R+ cell number, rep 1":1.10e6,"S2R+ cell number, rep 2":1.16e6}
{"gene":"Alk (Anaplastic lymphoma kinase)","DRSC id":"DRSC05918","Kc cell number, rep 1":1.63e6,"Kc cell number, rep 2":1.61e6,"S2R+ cell number, rep 1":1.22e6,"S2R+ cell number, rep 2":1.28e6}
{"gene":"Nacalpha (Nascent polypeptide associated complex protein alpha subunit)","DRSC id":"DRSC07477","Kc cell number, rep 1":1.33e6,"Kc cell number, rep 2":1.42e6,"S2R+ cell number, rep 1":1.00e6,"S2R+ cell number, rep 2":1.11e6}
{"gene":"FucTC (alpha1,3-fucosyltransferase C)","DRSC id":"DRSC20966","Kc cell number, rep 1":1.13e6,"Kc cell number, rep 2":1.29e6,"S2R+ cell number, rep 1":1.08e6,"S2R+ cell number, rep 2":1.15e6}
{"gene":"PlexA (Plexin A)","DRSC id":"DRSC17220","Kc cell number, rep 1":4.65e5,"S2R+ cell number, rep 1":8.54e5}
{"gene":"Rab4 + CG42239","DRSC id":"DRSC05667","Kc cell number, rep 1":5.49e5,"S2R+ cell number, rep 1":8.85e5}

Active calls (from the list above):
{"gene":"kibra","DRSC id":"DRSC16257","Kc cell number, rep 1":"1.98e5 (active)","Kc cell number, rep 2":2.66e5,"S2R+ cell number, rep 1":5.13e5,"S2R+ cell number, rep 2":5.98e5}
